Assay: odor (sensory properties) of the substances
Conditions: odor impression in words
Excerpt: The substances according to the present invention have in particular advantageous sensory properties, in particular odor.
Thus, substances according to the invention have the following odors:
Intensive odor impressions are to be understood as meaning those properties of aroma chemicals which permit a precise perception even in very low gas-space concentrations. The intensity can be ascertained via a threshold-value determination. A threshold value is the concentration of a substance in the relevant gas space at which an odor impression can just still be perceived by a representative test panel, although it no longer has to be defined. The substance class known as probably one of the most odor-intensive, i.e. those with very low threshold values, are thiols, whose threshold value is in the ppb/cbm range. It is the aim of the search for new aroma chemicals to find substances with the lowest possible threshold value in order to permit the lowest possible use concentration. The closer one comes to this target, the more one talks of “intensive” odor substances or aroma chemicals.
“Advantageous sensory properties” is a hedonic expression which describes the niceness and preciseness of an odor impression conveyed by an aroma chemical.
“Niceness” and “preciseness” are terms which are familiar to the person skilled in the art, a perfumer. Niceness generally refers to a spontaneously brought about, positively perceived, pleasant sensory impression. […] “Nice” can also describe the odor of musk or sandalwood.
“Preciseness” generally refers to a spontaneously brought about sensory impression which—for the same test panel—brings about a reproducibly identical reminder of something specific.

**Q.** Which odor does the source give for CCOC[C@H]1CC[C@H](COCC)CC1 [Compound I-trans, Trans-1,4-Cyclohexanedimethanol Diethyl Ether] here?
**A.** Its odor is “weak, low-intensity odor towards green, coumarin, very slight ozone-like smell”.

**Q.** And the odor (listed as trans-1,4-bis(ethoxymethyl)cyclohexane)?
**A.** Its odor is “low-intensity odor”.

**Q.** For CCOCC1CCC(CO)CC1 (stereo not drawn) [monoethyl ether of 1,4-bis(hydroxymethyl)cyclohexane, reference compound], which odor is on record?
**A.** The odor was “odorless”.
